{"sequences": {"note": "By UniProt entry, the sequences of proteins in these tests, tags left out. Where a name states a change or a piece, a line headed by the entry shows the natural chain unless it says otherwise.", "UniProt P18054": "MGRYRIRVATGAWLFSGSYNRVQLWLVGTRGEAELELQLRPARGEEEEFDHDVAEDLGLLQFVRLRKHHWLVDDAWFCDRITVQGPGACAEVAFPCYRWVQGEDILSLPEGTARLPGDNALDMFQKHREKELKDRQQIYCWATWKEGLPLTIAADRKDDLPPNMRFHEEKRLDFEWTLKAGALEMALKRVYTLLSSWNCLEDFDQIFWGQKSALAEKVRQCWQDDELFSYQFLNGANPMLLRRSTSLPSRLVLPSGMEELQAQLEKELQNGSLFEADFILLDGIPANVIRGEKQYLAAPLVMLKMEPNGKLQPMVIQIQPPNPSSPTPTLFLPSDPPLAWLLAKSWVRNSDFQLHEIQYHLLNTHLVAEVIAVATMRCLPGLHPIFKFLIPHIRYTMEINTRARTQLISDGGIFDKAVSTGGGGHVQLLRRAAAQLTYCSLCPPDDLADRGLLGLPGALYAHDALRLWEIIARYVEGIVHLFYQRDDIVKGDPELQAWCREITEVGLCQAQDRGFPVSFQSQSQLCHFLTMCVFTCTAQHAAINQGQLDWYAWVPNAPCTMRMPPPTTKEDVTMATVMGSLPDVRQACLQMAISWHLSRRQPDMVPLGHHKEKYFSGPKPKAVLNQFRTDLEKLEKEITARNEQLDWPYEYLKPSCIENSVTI"}, "source": "PubChem BioAssay AID1671190", "about": "(National Center for Advancing Translational Sciences (NCATS), 2021)", "note": "The whole screen tested about 580,000 compounds, of which about 6,100 (1.1%) were called active. The inconclusive results got no clear call from the source; some entries with a clear call stand among them for comparison. Calls follow the shape of the dose curve; as a rule, active = well fitted inhibition curve with a large enough effect; inconclusive = small, poorly fitted or top-dose-only effect, or another doubt; inactive = no such curve, though single readings can be large or run the other way. A potency beside an inconclusive call is a rough fit, not a confirmed value. % is scaled to controls: 0 for no effect and ±100 for the full control effect; potency is read from the fitted curve at half-maximal effect."}
{"biological_target": "Polyunsaturated fatty acid lipoxygenase ALOX12 (Homo sapiens) (UniProt P18054)", "assay": "Primary qHTS assay for inhibitors of human arachidonate 12S-lipoxygenase (ALOX12): Round 2", "conditions": "purified 12hLO, xylenol orange hydroperoxide absorbance; activity change, negative = inhibition: at 108 µM (top of the series) unless noted", "summary_of_the_method": "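Purified human 12hLO at 150 nM in 25 mM Hepes, 0.01% Triton X-100, pH 7.0, preincubated 15 min at room temperature with compound. Reaction started with 40 uM arachidonic acid, 30 min at room temperature. Hydroperoxide measured by Fe-xylenol orange, 573/405 nm absorbance ratio.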"}
{"smiles": "Cc1ccc(C(=O)NC2CC3CCCC(C2)N3Cc2ccccc2)cc1", "note": "(stereo not drawn)", "activity change, negative = inhibition": "inactive: -2.8%"}
{"smiles": "C=CCNc1n[nH]c(=S)s1", "Potency": "inconclusive: 4.47 µM [inhibitor, full curve]"}
{"smiles": "CC(C)(C)c1[nH]c2ccc(-c3ccccc3)cc2c1C=O", "activity change, negative = inhibition": "inactive: -2.05%"}
{"smiles": "C[C@H](O)[C@@H]1C(=O)N2CCc3c([nH]c4ccccc34)[C@@H]2C[C@@H]1N(C)Cc1ccc(Cl)cc1", "Potency": "inconclusive: 31.6 µM [inhibitor, single point]"}
{"smiles": "Cc1cc(C)c2c(N)c(C(=O)NCC3CCCCC3)sc2n1", "Potency": "inconclusive: 79.4 µM [inhibitor, partial curve, poor fit]"}
{"smiles": "O=C(O)CN(CC(=O)O)c1ccccc1", "Potency": "inconclusive: 15.8 µM [inhibitor, partial curve, poor fit]"}
{"smiles": "O=C(Nc1ccccc1N1CCCC1)c1ccc([N+](=O)[O-])o1", "Potency": "inconclusive: 22.4 µM [inhibitor, full curve, poor fit]"}
{"smiles": "COc1cc2[nH]c3c(=O)n(CCN4CCCCC4)cnc3c2cc1OC", "activity change, negative = inhibition": "inconclusive: -36.9% [inhibitor]"}
{"smiles": "CNc1nc(-c2cccc(NS(C)(=O)=O)c2)nc2ccccc12", "Potency": "inconclusive: 31.6 µM [inhibitor, partial curve, poor fit]"}
{"smiles": "Cn1c(C2CCCN2C(=O)OC(C)(C)C)n[nH]c1=S", "note": "(stereo not drawn)", "activity change, negative = inhibition": "inactive: -10.3%"}
{"smiles": "S=C(NCCSCc1ccc(Cl)c(Cl)c1)Nc1ccccc1", "activity change, negative = inhibition": "inactive: -40.1%"}
{"smiles": "N#Cc1cccc(-c2cncnc2NCc2cccnc2)c1", "Potency": "inconclusive: 7.08 µM [inhibitor, full curve, poor fit]"}
{"smiles": "Cc1nc2c(NC(=O)Nc3cccc(C(F)(F)F)c3)cccn2n1", "Potency": "inconclusive: 35.5 µM [inhibitor, partial curve]"}
{"smiles": "CC1=NN(C(N)=S)C(=O)C1N=Nc1ccccc1O", "note": "(stereo not drawn)", "activity change, negative = inhibition": "inactive: 0%"}
{"smiles": "O=C(O)c1ccc2c(c1)C(=O)N(CCc1ccccc1)C2=O", "activity change, negative = inhibition": "inactive: 14.3%"}
{"smiles": "CCC(C)Sc1ccc([C@@H]2[C@@H]3C(=O)N(C)C(=O)[C@@H]3[C@]3(C(=O)OC)CCCCN23)cc1OC", "note": "(stereo partly drawn)", "Potency": "inconclusive: 50.1 µM [inhibitor, partial curve, poor fit]"}
{"smiles": "COc1ccc(C(=O)NCC(=O)OCC(=O)c2ccccc2)cc1", "Potency": "inconclusive: 158 µM [inhibitor, single point]"}
{"smiles": "CCc1ccc(C2C(=O)c3ccccc3C2=O)cc1", "Potency": "inconclusive: 100 µM [inhibitor, single point]"}
{"smiles": "Cc1ccc(-c2n[nH]c(=S)n2Cc2ccccc2)cc1", "Potency": "active: 39.8 µM"}
{"smiles": "CN(N)C(=S)Nc1ccc(Cl)cc1", "Potency": "inconclusive: 39.8 µM [inhibitor, partial curve, poor fit]"}
{"smiles": "Cc1ccc(/C=C/C(=O)Oc2ccc(-c3ccc(C#N)cc3)cc2)o1", "Potency": "inconclusive: 56.2 µM [inhibitor, partial curve, poor fit]"}
{"smiles": "O=C(Cn1cc(C(=S)N2CCOCC2)c2ccccc21)N1CCOCC1", "Potency": "inconclusive: 39.8 µM [inhibitor, partial curve, poor fit]"}
{"smiles": "O=C(Nc1ccc2nc[nH]c(=O)c2c1)c1ccc(Br)cc1", "Potency": "inconclusive: 112 µM [inhibitor, single point]"}
{"smiles": "O=C(CCCn1c(SCC(=O)c2ccc(O)c(O)c2)nc2ccccc2c1=O)NCC1CCCO1", "note": "(stereo not drawn)", "Potency": "active: 1.78 µM"}
{"smiles": "COc1ccccc1OCc1ccc(C(=O)NCC(C)C)o1", "activity change, negative = inhibition": "inactive: -7.31%"}
{"smiles": "CC1CCCCC12NC(=O)N(CC(=O)NCc1ccccc1Cl)C2=O", "note": "(stereo not drawn)", "Potency": "inconclusive: 50.1 µM [inhibitor, partial curve, poor fit]"}
{"smiles": "Cc1c(Cl)cccc1NC(=O)NCc1ccc(C)n1C", "Potency": "inconclusive: 56.2 µM [inhibitor, partial curve, poor fit]"}
{"smiles": "CC[C@H](C)[C@H](N)C(=O)N1CCC(Cn2cc(C3CCCC3)nn2)CC1", "Potency": "inconclusive: 15.8 µM [inhibitor, full curve]"}
{"smiles": "CCOC(=O)c1c(NC(=O)CS(=O)(=O)c2ccc(C)cc2)sc2c1CCC(C)C2", "note": "(stereo not drawn)", "Potency": "inconclusive: 56.2 µM [inhibitor, partial curve, poor fit]"}
{"smiles": "Cc1ccc(Cn2c(=N)c(C(=O)NCCN3CCOCC3)cc3c(=O)n4ccccc4nc32)cc1", "activity change, negative = inhibition": "inactive: -13.6%"}
{"smiles": "COc1ccc(-c2ccc(CN3C(C)C(=O)N(Cc4cn(CCC5OCCO5)nn4)CCS3(=O)=O)cc2)cc1", "note": "(stereo not drawn)", "Potency": "active: 15.8 µM"}
{"smiles": "O=C(O)c1ccccc1-c1ccccc1C(=O)Nc1ccc2c(c1)oc(=O)c1ccccc12", "activity change, negative = inhibition": "inactive: -8.67%"}
{"smiles": "COc1ccc(CNC(=S)NCC(C)N2CCCCC2C)cc1", "note": "(stereo not drawn)", "Potency": "inconclusive: 70.8 µM [inhibitor, partial curve, poor fit]"}
{"smiles": "COc1ccc(N(C(=O)CNC(=O)c2ccco2)C(C(=O)NC2CCCC2)c2ccc(C)o2)cc1", "note": "(stereo not drawn)", "Potency": "inconclusive: 141 µM [inhibitor, partial curve, poor fit]"}
{"smiles": "COc1cc(OC)c(OC)cc1CN1CCc2ccccc2C1", "Potency": "inconclusive: 2 µM [inhibitor, full curve, poor fit]"}
{"smiles": "COc1ccc(Cn2cc(CN3CC(N4CCN(CCO)CC4)CS3(=O)=O)nn2)cc1", "note": "(stereo not drawn)", "Potency": "inconclusive: 28.2 µM [inhibitor, partial curve, poor fit]"}
{"smiles": "CNC(=S)Nc1ccc(Cc2ccncc2)cc1", "Potency": "inconclusive: 126 µM [inhibitor, single point]"}
{"smiles": "Cc1ccc(-c2ccccc2C2=CC(=O)CC(C)(C)C2=O)cc1", "Potency": "inconclusive: 17.8 µM [inhibitor, partial curve, poor fit]"}
{"smiles": "Cc1nc(-c2cccs2)c(CC(=O)NCCc2ccccc2F)s1", "Potency": "inconclusive: 44.7 µM [inhibitor, partial curve, poor fit]"}
{"smiles": "O=NN(CCCl)C(=O)NCC1=C[N+](=O)CC=C1", "Potency": "inconclusive: 112 µM [inhibitor, single point]"}
{"smiles": "COc1ccccc1CNC(=O)Cn1ccc2cccc(OC)c21", "activity change, negative = inhibition": "inactive: 5.66%"}
{"smiles": "CCCC[C@@H]1C=C(C(=O)O)[C@H](c2ccc(Br)cc2)N1S(=O)(=O)c1ccc(C)cc1", "Potency": "inconclusive: 31.6 µM [inhibitor, single point]"}
{"smiles": "CCOC(=O)C1=C(C)N=c2s/c(=C/c3ccc(OCC(=O)O)cc3)c(=O)n2C1c1ccc(F)cc1", "note": "(stereo not drawn)", "Potency": "inconclusive: 50.1 µM [inhibitor, partial curve, poor fit]"}
